Consider 36 compounds from PubChem BioAssay AID248 (DTP/NCI, 2004).

The test system of this test is L1210 leukemia ip in BDF1 mice, survival T/C. In words: NCI In Vivo Anticancer Drug Screen. Data for tumor model L1210 Leukemia (intraperitoneal) in B6D2F1 (BDF1) mice. The following applies: T/C endpoint: mean survival time, higher T/C = longer survival.
Setting [1] is: dose: 100.0 mg/kg/injection, schedule: Q01DX009 (ip), vehicle: saline with Tween-80.
Where [2] appears, read: dose: 200.0 mg/kg/injection, schedule: Q01DX009 (ip), vehicle: saline with Tween-80.
Setting [3] is: dose: 50.0 mg/kg/injection, schedule: Q04DX003 (ip), vehicle: saline with Tween-80.
[4] abbreviates: dose: 100.0 mg/kg/injection, schedule: Q04DX003 (ip), vehicle: saline with Tween-80.
Where [5] appears, read: dose: 200.0 mg/kg/injection, schedule: Q04DX003 (ip), vehicle: saline with Tween-80.
Setting [6] is: dose: 400.0 mg/kg/injection, schedule: Q04DX003 (ip), vehicle: saline with Tween-80.
Where [7] appears, read: dose: 200.0 mg/kg/injection, schedule: Q01DX001 (ip), vehicle: saline.
The mark [8] stands for this setting: dose: 400.0 mg/kg/injection, schedule: Q01DX001 (ip), vehicle: saline.
Setting [9] is: dose: 200.0 mg/kg/injection, schedule: Q01DX009 (ip), vehicle: Klucel (hydroxypropylcellulose) (HPC).
The mark [10] stands for this setting: dose: 400.0 mg/kg/injection, schedule: Q01DX009 (ip), vehicle: Klucel (hydroxypropylcellulose) (HPC).
Setting [11] is: dose: 400.0 mg/kg/injection, schedule: Q04DX003 (ip), vehicle: Klucel (hydroxypropylcellulose) (HPC).
Where [12] appears, read: dose: 300.0 mg/kg/injection, schedule: Q01DX001 (ip), vehicle: other.
[13] abbreviates: dose: 100.0 mg/kg/injection, schedule: Q04DX003 (ip), vehicle: saline.
Where [14] appears, read: dose: 200.0 mg/kg/injection, schedule: Q04DX003 (ip), vehicle: saline.
[15] abbreviates: dose: 400.0 mg/kg/injection, schedule: Q04DX003 (ip), vehicle: saline.
[16] abbreviates: dose: 400.0 mg/kg/injection, schedule: Q04DX002 (ip), vehicle: saline with Tween-80.
The mark [17] stands for this setting: dose: 100.0 mg/kg/injection, schedule: Q04DX002 (ip), vehicle: saline with Tween-80.
Setting [18] is: dose: 200.0 mg/kg/injection, schedule: Q04DX002 (ip), vehicle: saline with Tween-80.

The list shows only some results of the screen, not a fair sample: it is rich in T/C values a quarter to a half above the control, in often repeated tests (any T/C) and in doses without a T/C. Other doses and runs of a compound stand elsewhere. T/C: endpoint of the treated group in % of that of the vehicle group. Some entries give survivors of the animals treated and no T/C: the source holds a T/C of zero for them, seemingly a mark for toxic or unscored doses. Some survivor counts are full or nearly so, which does not show that the dose was tolerated: survival well below the control is almost never listed, so the zero probably covers shortened survival too. Survivors were counted at the toxicity check, usually on the fifth day, unless a day is given; later deaths do not show. Schedule codes are those of the source, taken here to give the interval after Q, in days (D) or hours (H), and the number of doses after X. Some schedule codes hold Z or #, which are not explained here. Brackets with × give the number of equal values in this list. Some doses were run more than once; the values are given in rising order. Where survival is the endpoint, the PubChem record calls one and a half times the control and up active, and a quarter to a half above the control has no call in these data; cut-offs in other NCI protocols can differ.

As for `C=CCc1ccc(OC(=O)Nc2ccc(SC)cc2)c(OC)c1`, the T/C was 90 (2×), 96, 97 % of control under setting [1] and 86, 97, 98 % of control under setting [2]. Moreover, the survivor count under setting [2] is 6 of 6.

With `CCCCC[CH2][Sn]([CH2]C)([CH2]C)[O]C(C)=O`, the survivor count is listed as 0 of 6 (dose: 100.0 mg/kg/injection, schedule: Q01DX001 (ip), vehicle: saline with Tween-80); 0 of 6 (dose: 200.0 mg/kg/injection, schedule: Q01DX001 (ip), vehicle: saline with Tween-80); 1 of 6 (dose: 400.0 mg/kg/injection, schedule: Q01DX001 (ip), vehicle: saline with Tween-80).

Consider `CCCCCCC(O)/C=C/c1ccc(Cl)cc1` (centres undefined), for which the survivor count (dose: 400.0 mg/kg/injection, schedule: Q01DX009 (ip), vehicle: saline with Tween-80) is given as 6 of 6.

In the case of `OCC1OC2OC(c3ccccc3)(c3ccc(OCc4ccccc4)nc3OCc3ccccc3)OC2C1O` (centres undefined), the survivor count (dose: 50.0 mg/kg/injection, schedule: Q01DX001 (ip), vehicle: other) is reported as 6 of 6.

Turning to `COc1ccccc1[As](=O)(O)CC(O)COc1ccc(Cl)cc1Cl` (centres undefined), the survivor count (dose: 25.0 mg/kg/injection, schedule: Q04DX003 (ip), vehicle: saline with Tween-80) is reported as 6 of 6; the survivor count under setting [3] is 5 of 6; the survivor count under setting [4] is 0 of 6 (2×); the survivor count under setting [5] is 0 of 6; the survivor count under setting [6] is recorded as 0 of 6.

On to `CNc1cc(N)ncn1`, for which the survivor count (dose: 225.0 mg/kg/injection, schedule: Q01DX Z (ip), vehicle: saline) is reported as 3 of 6.

In the case of `O=C(O)CC(Br)C(=O)c1ccccc1` (centres undefined), the survivor count reads like this: under setting [4], 6 of 6; under setting [5], 5 of 6; under setting [6], 1 of 6.

Consider `Cc1ccc(S(=O)(=O)OCCN(CCOS(=O)(=O)c2ccc(C)cc2)c2ccc(N=O)cc2)cc1`, for which the survivor count is listed as 1 of 4 under setting [7] and 0 of 4 under setting [8].

Regarding `CC(C)=C(CSC#N)S(=O)(=O)c1ccc(C)cc1`, the survivor count (dose: 100.0 mg/kg/injection, schedule: Q01DX009 (ip), vehicle: Klucel (hydroxypropylcellulose) (HPC)) was 0 of 6; the survivor count under setting [9] was 0 of 6; the survivor count under setting [10] was 0 of 6.

Consider `CN(Cc1ccccc1)Cc1ccccc1`, for which the survivor count under setting [11] is 2 of 6.

In the case of `O=C(COc1ccc(Cl)c(Cl)c1)Nc1ccc[n+](Cc2cccc(S(=O)(=O)F)c2)c1`, the survivor count (dose: 400.0 mg/kg/injection, schedule: Q01DX001 (ip), vehicle: Klucel (hydroxypropylcellulose) (HPC)) is on record as 3 of 6.

With `C=C(C)C1C2OC(=O)C1C1(O)CC3OC34C(=O)OC2C14C` (centres undefined), the survivor count is recorded as 1 of 6 (dose: 5.0 mg/kg/injection, schedule: Q01DX001 (ip), vehicle: other); 0 of 6 (dose: 9.5 mg/kg/injection, schedule: Q01DX001 (ip), vehicle: other); 0 of 6 (dose: 19.0 mg/kg/injection, schedule: Q01DX001 (ip), vehicle: other); 0 of 6 (dose: 38.0 mg/kg/injection, schedule: Q01DX001 (ip), vehicle: other); 0 of 6 (dose: 75.0 mg/kg/injection, schedule: Q01DX001 (ip), vehicle: other); 0 of 6 (dose: 150.0 mg/kg/injection, schedule: Q01DX001 (ip), vehicle: other). Moreover, the survivor count under setting [12] is given as 0 of 6.

`Cc1ccnc(N=Cc2ccccc2)c1`: the survivor count under setting [7] was 0 of 4 and the survivor count under setting [8] was 0 of 4.

On to `c1ccc(C[N+]23CCC(CC2)CC3)cc1`, for which the survivor count is 0 of 6 under setting [13], 0 of 6 under setting [14] and 0 of 6 under setting [15].

For the compound `O=[N+]([O-])c1ccc(S(=O)CCCl)c([N+](=O)[O-])c1` (centres undefined), the survivor count is, setting by setting: under setting [3], 5 of 6; under setting [4], 1 of 6 and 5 of 6; under setting [5], 0 of 6; under setting [6], 0 of 6.

Turning to `Cc1ccc(C(C)C)cc1NC(=O)c1c(Cl)c(Cl)c(Cl)c(Cl)c1C(=O)O`, the survivor count reads like this: under setting [9], 0 of 6; under setting [10], 0 of 6.

On to `O=C(Nc1cccc(Cl)c1)Oc1ccc(Cl)cc1Cl`, for which the survivor count under setting [16] was 0 of 3.

As for `CCc1ccc(C)[n+](N)c1`, the survivor count is given as 2 of 4 under setting [7] and 0 of 4 under setting [8].

Consider `Cc1cnc2ccccc2c1`, for which the survivor count under setting [8] is on record as 0 of 4.

On to `Cc1cc(C(C)(C)C)c(OC(=S)N(C)C)c(C(C)(C)C)c1`, for which the survivor count is listed as 6 of 6 under setting [4], 6 of 6 under setting [5] and 6 of 6 under setting [6].

For `CC(=O)Oc1ccc2c(c1)C(=O)CCCCCC(=O)O2`, the T/C under setting [4] is 127 % of control.

With `Cc1nnc2nc3c(nn12)c1ccccc1n3C`, the survivor count runs as follows: under setting [17], 0 of 3; under setting [18], 0 of 3; under setting [16], 1 of 3.

`O=C(Oc1ccccc1C(=O)O)c1ccccc1O`: under “dose: 200.0 mg/kg/injection, schedule: Q04DX003 (ip), vehicle: Klucel (hydroxypropylcellulose) (HPC)”, the survivor count is 3 of 3.

`CCOC(=O)Nc1cc(Cl)c2n[nH]nc2n1`: the survivor count runs as follows: (dose: 200.0 mg/kg/injection, schedule: Q01DX005 (ip), vehicle: saline) 2 of 4; (dose: 400.0 mg/kg/injection, schedule: Q01DX005 (ip), vehicle: saline) 0 of 4.

As for `Cc1ccc(S(=O)(=O)OCC23CCC2(COS(=O)(=O)c2ccc(C)cc2)COC3)cc1` (centres undefined), the survivor count (dose: 150.0 mg/kg/injection, schedule: Q01DX009 (ip), vehicle: saline) was 6 of 6.

Turning to `CCOC(=O)c1c(N)sc2c1CCC2`, the survivor count (dose: 400.0 mg/kg/injection, schedule: Q01DX009 (ip), vehicle: saline) is recorded as 1 of 6.

Consider `CCCCN(C)c1ccc(N=Nc2cc(Cl)ccc2Cl)cc1`, for which, under setting [5], the survivor count is on record as 6 of 6.

Take `Nc1cc2ccncc2c2ccccc12`: the survivor count under setting [11] is 3 of 6.

For the compound `Cc1cc2c(cc1C)[n+]([O-])c1c(=O)[nH]c(=O)nc-1n2CC(O)C(O)C(O)CO` (centres undefined), the survivor count under setting [16] is given as 2 of 3.

With `O=C(CNC(=O)NCc1ccccc1)N/N=C/c1cccc([N+](=O)[O-])c1`, the survivor count runs as follows: under setting [1], 3 of 3; under setting [2], 3 of 3.

`OCCSSSCCO`: the survivor count under setting [12] is reported as 1 of 6.

As for `O=C(Nc1cc(NC(=O)Nc2cccc(C3=NCCN3)c2)cc(C(=O)Nc2ccccc2)c1)Nc1cccc(C2=NCCN2)c1`, the survivor count (dose: 480.0 mg/kg/injection, schedule: Q01DX Z (ip), vehicle: carboxymethylcellulose (CMC)) was 0 of 6.

Consider `C1CCC2[N-]CC3CCCCC3[N-]CC3CCCCC3[N-]CC3CCCCC3[N-]CC2C1.[Ni+2].[O-][Cl+3]([O-])([O-])O` (centres undefined), for which the survivor count was 0 of 3 under setting [17], 0 of 3 under setting [18] and 0 of 3 under setting [16].

Take `O=C(O)C1C(C(=O)O)C2(Cl)C(Cl)=C(Cl)C1(Cl)C2(Cl)Cl.[Fe]` (centres undefined): the survivor count is, setting by setting: (dose: 100.0 mg/kg/injection, schedule: Q01DX Z (ip), vehicle: carboxymethylcellulose (CMC)) 6 of 6; under setting [13], 6 of 6; (dose: 150.0 mg/kg/injection, schedule: Q01DX Z (ip), vehicle: carboxymethylcellulose (CMC)) 6 of 6; under setting [14], 6 of 6.

Regarding `CN1CCC(Br)(C(=O)c2ccccc2)CC1`, the survivor count (dose: 300.0 mg/kg/injection, schedule: Q01DX001 (ip), vehicle: saline) is on record as 1 of 6.

Regarding `CCCCCCCCCCCCOP(N)(=O)OCCCCCCCCCCCC`, the survivor count under setting [15] is on record as 3 of 6.
